Experimental data: PubChem BioAssay AID1671190 (National Center for Advancing Translational Sciences (NCATS), 2021)
Among all 580,000 compounds or so, about 6,100 (1.1%) were called active. The shares of active, inactive and inconclusive entries below differ from those in the screen. The call rests on the fitted dose curve; in most records, active means well fitted inhibition curve with a large enough effect; inconclusive means small, poorly fitted or top-dose-only effect, or another doubt; inactive means no such curve, though single readings can be large or run the other way. Potencies of inconclusive entries are doubtful fits and often do not repeat.

The chains behind the UniProt entries cited, without tags or fusion partners. Where a name states a change or a piece, a line headed by the entry shows the natural chain unless it says otherwise.
UniProt P18054: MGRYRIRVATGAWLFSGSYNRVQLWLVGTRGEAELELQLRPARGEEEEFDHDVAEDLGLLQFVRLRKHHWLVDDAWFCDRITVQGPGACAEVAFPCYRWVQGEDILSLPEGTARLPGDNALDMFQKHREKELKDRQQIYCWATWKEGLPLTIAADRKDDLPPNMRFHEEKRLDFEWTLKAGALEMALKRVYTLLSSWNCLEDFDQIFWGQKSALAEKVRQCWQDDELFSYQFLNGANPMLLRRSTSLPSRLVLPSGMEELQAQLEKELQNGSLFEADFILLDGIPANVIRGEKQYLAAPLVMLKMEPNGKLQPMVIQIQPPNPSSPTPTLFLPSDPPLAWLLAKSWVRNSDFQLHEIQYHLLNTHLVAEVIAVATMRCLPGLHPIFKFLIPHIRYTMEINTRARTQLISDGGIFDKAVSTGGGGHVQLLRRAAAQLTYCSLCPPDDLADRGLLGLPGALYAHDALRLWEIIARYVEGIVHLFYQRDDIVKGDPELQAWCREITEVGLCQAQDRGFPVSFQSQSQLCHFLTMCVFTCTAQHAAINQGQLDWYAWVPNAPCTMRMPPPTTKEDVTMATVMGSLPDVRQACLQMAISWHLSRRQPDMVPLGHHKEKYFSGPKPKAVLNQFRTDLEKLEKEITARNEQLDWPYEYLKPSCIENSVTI

molecular target: Polyunsaturated fatty acid lipoxygenase ALOX12 (Homo sapiens) (UniProt P18054); assay: Primary qHTS assay for inhibitors of human arachidonate 12S-lipoxygenase (ALOX12): Round 2; details: purified 12hLO, xylenol orange hydroperoxide absorbance; activity change, negative = inhibition: at 108 µM (top of the series) unless noted
Summary of the method: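 Hydroperoxide product was detected by ferrous iron/xylenol orange as the 573 to 405 nm absorbance ratio. Arachidonic acid at 40 uM (final) was turned over for 30 min at room temperature by 150 nM human 12hLO, pH 7.0 Hepes buffer, after 15 min compound preincubation.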
On the % scale 0 is the no-effect control and ±100 the full control effect; potency means the concentration at half of the fitted maximal effect.

| Compound | Potency | activity change, negative = inhibition |
| --- | --- | --- |
| COc1ccnc(-c2nnc3ccc(N4C[C@@H](C)O[C@@H](C)C4)nn23)c1 | inconclusive: 7.94 µM [inhibitor, partial curve, poor fit] |  |
| CCCCOC(=O)Nc1sc2c(c1C(=O)OC)CCC2 |  | inactive: -11.4% |
| COc1ccc(C(C)=O)cc1CSCc1coc(-c2ccc(Cl)cc2)n1 | inconclusive: 44.7 µM [inhibitor, partial curve] |  |
| Cc1ccc2oc(-c3cccc(NC(=O)c4cccs4)c3C)nc2c1 | inconclusive: 63.1 µM [inhibitor, partial curve, poor fit] |  |
| CC1CC1c1ccc(CNCc2ccco2)o1 (centres undefined) | inconclusive: 50.1 µM [inhibitor, partial curve, poor fit] |  |
| COc1ccc2[nH]cc(C(C(=O)O)N3CCN(Cc4cccc5ccccc45)CC3)c2c1 (centres undefined) | inconclusive: 79.4 µM [inhibitor, single point] |  |
| O=C(CSc1nc(N2CCCCC2)nc(N2CCCCC2)n1)c1ccccc1 |  | inactive: 0% |
| C=CCNC(=S)Nc1cc(C(F)(F)F)cc(C(F)(F)F)c1 | inconclusive: 44.7 µM [inhibitor, partial curve, poor fit] |  |
| O=C1C(n2ccc3ccccc32)c2cc(Cl)ccc2N1Cc1ccc(C(F)(F)F)cc1 (centres undefined) | inconclusive: 7.08 µM [inhibitor, full curve, poor fit] |  |
| CCOP(=O)(Nc1cccc2oc(=O)c3ccccc3c12)OCC |  | inactive: 1.73% |
| O=C(c1ccc(Cl)cc1)N1CCC(n2cc(-c3nc(-c4ccccc4)no3)nn2)CC1 | inconclusive: 22.4 µM [inhibitor, full curve] |  |
| COCCC1CCCCN1Cc1nc(N2CCCCC2)c2cc(OC)c(OC)cc2n1 (centres undefined) | inconclusive: 56.2 µM [inhibitor, single point] |  |
| O=C(Nc1ccc(Cl)cc1)c1ccc2ccccc2n1 | inconclusive: 25.1 µM [inhibitor, partial curve] |  |
| COC(=O)c1cc2oc(C)cc2n1CC(=O)Nc1ccc(C)c(C)c1 |  | inactive: -6.16% |
| Cc1ccc2nc3n(c(=O)c2c1)-c1cc2ccccc2cc1C(=O)NC3CC(C)C (centres undefined) | inconclusive: 100 µM [inhibitor, single point] |  |
| COCCCNc1nc2c(c(=O)n(C)c(=O)n2C)n1Cc1ccc(Cl)c(Cl)c1 |  | inactive: -10% |
| COc1ccc(-c2nc(C(C)C)nc3c2CN([S+](=O)([O-])c2c(C)noc2C)CC3)cc1 |  | inactive: 19.6% |
| Cc1ccc(-n2cc(C(C)(C)C)[nH]c2=S)cc1 |  | inactive: -3.58% |
| CC(C)CCSc1nc2c(c(=O)n(C)c(=O)n2C)n1C/C=C/c1ccccc1 | inconclusive: 39.8 µM [inhibitor, single point] |  |

Random excerpt: two records from the list

| Compound | Potency | activity change, negative = inhibition |
| --- | --- | --- |
| COC(=O)c1cc2oc(C)cc2n1CC(=O)Nc1ccc(C)c(C)c1 |  | inactive: -6.16% |
| COCCC1CCCCN1Cc1nc(N2CCCCC2)c2cc(OC)c(OC)cc2n1 (centres undefined) | inconclusive: 56.2 µM [inhibitor, single point] |  |
